Measured values published in publication PMC7819943, “Rice protein-binding microarrays: a tool to detect cis-acting elements near promoter regions in rice”.
The other results are listed elsewhere or left out.

Sequences of proteins named here, by UniProt entry; tags and fusion partners are left off.
UniProt Q0JBA9, entry or part of it: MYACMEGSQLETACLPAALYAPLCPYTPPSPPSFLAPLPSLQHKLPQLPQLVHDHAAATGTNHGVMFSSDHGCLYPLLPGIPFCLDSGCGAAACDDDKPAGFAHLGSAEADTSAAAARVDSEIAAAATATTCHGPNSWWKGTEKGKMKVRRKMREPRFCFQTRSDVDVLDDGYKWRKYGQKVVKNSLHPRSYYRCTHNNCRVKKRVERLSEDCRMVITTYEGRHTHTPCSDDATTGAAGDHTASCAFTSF

Target: OsWRKY34 (Oryza sativa, UniProt Q0JBA9 1-250)
Assay: protein-binding microarray (RPBM); PBS, 2% BSA, 51.3 ng/ul salmon testes DNA, 50 uM zinc acetate, 200 nM TF, 25 C, 1 h; high values mean tight binding
Conditions: protein: recombinant; tags: N-terminal polyhistidine and DsRed monomer fusion (pET32a); label: CyDye5-dUTP incorporated in the synthesized complementary strand; 3' TTTTT single-stranded linker to array surface; dsDNA, one strand shown
Outline: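 Binding signal here means per-feature fluorescence intensity in arbitrary units. The values were read on an Axon 4000B scanner after a custom Agilent array, double-stranded by primer extension with Cy5-dUTP, was incubated with 200 nM protein at 25 °C for 1 h in PBS with 2% BSA, salmon testes DNA and 50 µM zinc acetate, then washed. The proteins were transcription factors with an N-terminal polyhistidine tag and DsRed, expressed in E. coli BL21-CodonPlus and purified on Ni–NTA.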

Sequence	binding signal
TTTTTTAAGTTGCATAGGGGTCTTGGTTCTCCTTCTCCTCCGGAGTCACCTAGTGCAG	9710 fluorescence intensity (a.u.)
GCTGATGGATCTTGTAATCGTACCTGTGAAGTTTGTGCTACGGAGTCACCTAGTGCAG	9500 fluorescence intensity (a.u.)
ATTCTTGCGTTCAAGTTCAGTACATATACGTATCTCTCACCGGAGTCACCTAGTGCAG	9390 fluorescence intensity (a.u.)
CATGGTTTTACTATTGGTCCTTTACATATTAAAGGTTTCTCGGAGTCACCTAGTGCAG	8740 fluorescence intensity (a.u.)
ATGGTTGTTTTCATTTTGTTGGTCAGGGAATTATATGTCACGGAGTCACCTAGTGCAG	14500 fluorescence intensity (a.u.)
TATTTGGTCGTCGCTGGTTGTTTGTAGCACGCCAGCTCCACGGAGTCACCTAGTGCAG	8090 fluorescence intensity (a.u.)
ATATATATGGATTAGGTTTGGATTGGGGATCATTTGTATGCGGAGTCACCTAGTGCAG	8360 fluorescence intensity (a.u.)
CTGTATTCTTTGATTCTTTCAATTGTTGCCATATATTCCCCGGAGTCACCTAGTGCAG	9780 fluorescence intensity (a.u.)
TAACTTTGCTATTAATTAGGGGTATTTTGGTTCTTTTATACGGAGTCACCTAGTGCAG	16100 fluorescence intensity (a.u.)
ACCCAGGGTACGAGCTAGGCTAAATGCATTTCTTTTCTTCCGGAGTCACCTAGTGCAG	9590 fluorescence intensity (a.u.)
TTGCTTCTTCTTCTTCTCTCTCTCTACAACTCAAGCTAATCGGAGTCACCTAGTGCAG	9480 fluorescence intensity (a.u.)
AACTCGTCAATGGCCTCTAGTTCCCCTTTTCTCCTCTGTACGGAGTCACCTAGTGCAG	8410 fluorescence intensity (a.u.)
AGTCGTCCTCAAGCTTGACAAACCCGGTGTGATGTCTCGTCGGAGTCACCTAGTGCAG	9030 fluorescence intensity (a.u.)
AGGAGGGGTATTGTTGCTAATCTTGATTGTTTTACTCTTGCGGAGTCACCTAGTGCAG	17000 fluorescence intensity (a.u.)
TCTGGCGACCTCGCTGTCATCGTCGCCGCCGCGGTTCCCCCGGAGTCACCTAGTGCAG	8740 fluorescence intensity (a.u.)
ACCATCTCCTCGTCGTAGCCATCGATCACCACGCCCACCTCGGAGTCACCTAGTGCAG	10100 fluorescence intensity (a.u.)
TTCCTCTCTTTTTTTCCCTGATCACTTCCTTGGAAAGCAACGGAGTCACCTAGTGCAG	8340 fluorescence intensity (a.u.)
TTCCTGGTTGCTTCTTTTGCAGTTTTTTTTTTCCCTTCCTCGGAGTCACCTAGTGCAG	10100 fluorescence intensity (a.u.)
ATTTTGTCTTTTTTTACGGTCAACTATAATTTTTCTGACTCGGAGTCACCTAGTGCAG	8490 fluorescence intensity (a.u.)
CCATCTGTGTACTCCAATCTTACCAAGATCAGATAAATATCGGAGTCACCTAGTGCAG	8790 fluorescence intensity (a.u.)
TTTCGATACCTTTGAATTATATACTTGTTATACTTTCCTCCGGAGTCACCTAGTGCAG	8060 fluorescence intensity (a.u.)

Sequence	binding signal
ATGGCTTTGTTAACATAACACCAGCTTTGCTGTCTCGGTTCGGAGTCACCTAGTGCAG	9110 fluorescence intensity (a.u.)
TAAATAATTTGTCTATCACTTTTCCTACTCTTTGCACTTACGGAGTCACCTAGTGCAG	10400 fluorescence intensity (a.u.)
TTTCCATCCCATTTCCATTGAAGCCAACATAATTATCAATCGGAGTCACCTAGTGCAG	8480 fluorescence intensity (a.u.)
CTCGTTCTTCCATTTCTCTTAATTTCTCCTCCATTATCACCGGAGTCACCTAGTGCAG	8860 fluorescence intensity (a.u.)
AACACAATACTACAACACTACACTAACGCTCACACACACTCGGAGTCACCTAGTGCAG	9290 fluorescence intensity (a.u.)
GGAGCCAAACCCACTTCCAGTAGCATACAACATCACACGGCGGAGTCACCTAGTGCAG	8680 fluorescence intensity (a.u.)
ATTCATTGCCGATACTTCCGCCATCTCCTCCATTGCCGTCCGGAGTCACCTAGTGCAG	9060 fluorescence intensity (a.u.)
CATCCACCGCAATGCTCAAGCTTCCAATGCAATTCTCTCCCGGAGTCACCTAGTGCAG	10100 fluorescence intensity (a.u.)
TTTTCTCACCACTCTCTCTTTCGTGTTCTCTCTCTCTTGTCGGAGTCACCTAGTGCAG	12500 fluorescence intensity (a.u.)
TATCCTGTTCACCTCAACGACTAATTTTATTGTGCTTATACGGAGTCACCTAGTGCAG	10400 fluorescence intensity (a.u.)
GGCCGCTTCTTCCCCACTGGGCCTCCGCGTTTGGTTGTTTCGGAGTCACCTAGTGCAG	8500 fluorescence intensity (a.u.)
AGTTGATGATACTCCTACACTACCCTGTTATTATCAAACTCGGAGTCACCTAGTGCAG	9240 fluorescence intensity (a.u.)
GTTTATTTTCTTTTTCCTGACTATAGTCTCCCAGGACTATCGGAGTCACCTAGTGCAG	13400 fluorescence intensity (a.u.)
CTTTCCTCTGTTGTGGGATTCCCCTTTCCTACGAACTCTCCGGAGTCACCTAGTGCAG	10300 fluorescence intensity (a.u.)
CTTCTAATTATTTGATATTAGGTCATTCTCTAATATTCACCGGAGTCACCTAGTGCAG	8450 fluorescence intensity (a.u.)
CGCTAGTTTTGTCTACATCATCGTCATGGAACACGACTCCCGGAGTCACCTAGTGCAG	10200 fluorescence intensity (a.u.)
CGAATTAGGAATCTCGCAAATTCATGCTTCATTCTGTATTCGGAGTCACCTAGTGCAG	8020 fluorescence intensity (a.u.)
GTTGAAAGTTGATGTGTGTTGTGTATATATACACATCTCTCGGAGTCACCTAGTGCAG	9110 fluorescence intensity (a.u.)
ACTCGCAGTCGCCGCCGCCCTCCTCCCAACCCGCGCGGCGCGGAGTCACCTAGTGCAG	8880 fluorescence intensity (a.u.)
TGGAACCATTGTGGGGTAGGATATGTTCGGTATGATCAAACGGAGTCACCTAGTGCAG	8250 fluorescence intensity (a.u.)
GCTTTCCTCTGAATTCCACACGCATTGAACCATATATAAACGGAGTCACCTAGTGCAG	10000 fluorescence intensity (a.u.)

Sequence	binding signal
CTCTCTTTCTCTCTCGCGGCCTCGCGTCCGCCTGCCTCCTCGGAGTCACCTAGTGCAG	8330 fluorescence intensity (a.u.)
TCCAACTTGGGGAGGGAGGGCCGTTTCAGCTCGGGCTTTTCGGAGTCACCTAGTGCAG	17200 fluorescence intensity (a.u.)
AATGCACCGGATAAAATACCACTCAATACGTTGTCTACCGCGGAGTCACCTAGTGCAG	8230 fluorescence intensity (a.u.)
AATCTCCATTCTCGTCGTCTCCTCAGCTGCTTGCGCCAAGCGGAGTCACCTAGTGCAG	9390 fluorescence intensity (a.u.)
ATCTCCGGCGTTTTTCAACCGTATGGCAATGATCATCCTTCGGAGTCACCTAGTGCAG	11100 fluorescence intensity (a.u.)
CATATGCTTAGTTTCAGCTCATTATTCTCTCATATTTGACCGGAGTCACCTAGTGCAG	9830 fluorescence intensity (a.u.)
TTTCCTTTCCTGCCCATTTGCTTAGCTATATATCTTGCAGCGGAGTCACCTAGTGCAG	9390 fluorescence intensity (a.u.)
CACTGCCTCCTAGGTACACTTTTTGTCTGCTCTTCAATTGCGGAGTCACCTAGTGCAG	8500 fluorescence intensity (a.u.)
ATTGTTAGCCTTGCTGGTGCTGCAGTTGCCTCAACCACAGCGGAGTCACCTAGTGCAG	9080 fluorescence intensity (a.u.)
CCTACGTGGTCGTGCCCCAATTCCTGCTTTTTTTCCCCTGCGGAGTCACCTAGTGCAG	11100 fluorescence intensity (a.u.)
AATTCGGCGTGCAGTGGATATGGATTTGCCCACAATCTCTCGGAGTCACCTAGTGCAG	8320 fluorescence intensity (a.u.)
TTTTGTTGGTTTCTTGGGGATATTGAATGTTTATATTATTCGGAGTCACCTAGTGCAG	8500 fluorescence intensity (a.u.)
CGGAACCACCGCCGCCGCGCCATGCCCATCTCCTCCTTGTCGGAGTCACCTAGTGCAG	11000 fluorescence intensity (a.u.)
GACGTGTTTGGTCTTCGGTTCGGTGGGTCTCAAGTTCTGACGGAGTCACCTAGTGCAG	19400 fluorescence intensity (a.u.)
CGCGGCCATCAATCCCGCGGCGGCCACCGTCTCCAAGTCCCGGAGTCACCTAGTGCAG	8080 fluorescence intensity (a.u.)
CTCCGTTATCAAATATCGTGTCTCGTTGTCGTCATCATATCGGAGTCACCTAGTGCAG	13400 fluorescence intensity (a.u.)
ATATGATATTTGTCCATCTTAATTGCTTATAAGCTGTATACGGAGTCACCTAGTGCAG	8760 fluorescence intensity (a.u.)
TTGTTCCTCAAATTTGTTCTCCTACGATCTTCAGTTGTGGCGGAGTCACCTAGTGCAG	9220 fluorescence intensity (a.u.)
CATATCTGTTGCAGGGTTAGCTTTTTCACTTCCGTAAACACGGAGTCACCTAGTGCAG	11500 fluorescence intensity (a.u.)
ATAGTTTGTTGTTTCCCAGACATAATTTTTACTAGCTTATCGGAGTCACCTAGTGCAG	9630 fluorescence intensity (a.u.)
CTCCGTCGTCGTCATCATCCACTCTCCTCTCCCCTGGTTTCGGAGTCACCTAGTGCAG	12200 fluorescence intensity (a.u.)

Four entries picked at random from the list so far:
Sequence	binding signal
AGGAGGGGTATTGTTGCTAATCTTGATTGTTTTACTCTTGCGGAGTCACCTAGTGCAG	17000 fluorescence intensity (a.u.)
TAACTTTGCTATTAATTAGGGGTATTTTGGTTCTTTTATACGGAGTCACCTAGTGCAG	16100 fluorescence intensity (a.u.)
CTCTCTTTCTCTCTCGCGGCCTCGCGTCCGCCTGCCTCCTCGGAGTCACCTAGTGCAG	8330 fluorescence intensity (a.u.)
AATTCGGCGTGCAGTGGATATGGATTTGCCCACAATCTCTCGGAGTCACCTAGTGCAG	8320 fluorescence intensity (a.u.)

Part of the list above, in CSV form:
Sequence,binding signal
ATCTCCGGCGTTTTTCAACCGTATGGCAATGATCATCCTTCGGAGTCACCTAGTGCAG,11100 fluorescence intensity (a.u.)
CATATGCTTAGTTTCAGCTCATTATTCTCTCATATTTGACCGGAGTCACCTAGTGCAG,9830 fluorescence intensity (a.u.)
ATATGATATTTGTCCATCTTAATTGCTTATAAGCTGTATACGGAGTCACCTAGTGCAG,8760 fluorescence intensity (a.u.)

Additional records follow.

Sequence	binding signal
CATGATCACTTGCATTTCATCTTTTCATGAACGTTTTTTTCGGAGTCACCTAGTGCAG	10700 fluorescence intensity (a.u.)
TGACCTCGTACGCCGGCACCGCCATCCTGCCCAAACAATGCGGAGTCACCTAGTGCAG	9040 fluorescence intensity (a.u.)
ACTATCCCCACCCGTGTCCCGCGCGCCACGCCACGCCACGCGGAGTCACCTAGTGCAG	12300 fluorescence intensity (a.u.)
TGTTTATAGCATCTCTCTCGCTGCCTCCTTATAGGGCTCACGGAGTCACCTAGTGCAG	8730 fluorescence intensity (a.u.)
TGTTGACTTTTTAAAATCATGTGCTTGACAGGGCCGAACCCGGAGTCACCTAGTGCAG	8150 fluorescence intensity (a.u.)
CCGTCCGGCGAATAAACCCGCCGCCTCTCGTTTCGCCGCCCGGAGTCACCTAGTGCAG	8680 fluorescence intensity (a.u.)
CTGTAATTTCTTTTTTTCTTCCTCTTTTGTCTTAGCAGTTCGGAGTCACCTAGTGCAG	8970 fluorescence intensity (a.u.)
GAGGCGTATATTGTTGTTCTCATTCCCCAACCACTCGATCCGGAGTCACCTAGTGCAG	9630 fluorescence intensity (a.u.)
GGTGGGCCCCTGTACAGTAGCATTTTGTATTTTCTCTATTCGGAGTCACCTAGTGCAG	11500 fluorescence intensity (a.u.)
GGTCAACAAAGCCATTCCTTGCTTTCCATTCTGATTTTGTCGGAGTCACCTAGTGCAG	12900 fluorescence intensity (a.u.)
CCCTATATAAACCGCCACGCCACGCCACGGCCACCAACTCCGGAGTCACCTAGTGCAG	8910 fluorescence intensity (a.u.)
TTTTTCCCCTCCTCTCGATCGCTTGGTGTTTGTGCTTGTTCGGAGTCACCTAGTGCAG	8590 fluorescence intensity (a.u.)
AATTATTTTGCTGGGGAGCTAGGGTTTGTGGAGAACTTTTCGGAGTCACCTAGTGCAG	9320 fluorescence intensity (a.u.)
ATTTTGGATTTTATTTTTATTTTATTCCGAATATTAATTACGGAGTCACCTAGTGCAG	8140 fluorescence intensity (a.u.)
CATAGAGCTCATTCAATTCCATTACGTACATTAGCCCTCACGGAGTCACCTAGTGCAG	8420 fluorescence intensity (a.u.)
TTCAGTTTCTTTCTACGATTTTCATGCGCCTCAGCCATCCCGGAGTCACCTAGTGCAG	8510 fluorescence intensity (a.u.)
AGTTTGTCATGGTCTAAAATATTACCCAGGTGTTCTTTGACGGAGTCACCTAGTGCAG	8760 fluorescence intensity (a.u.)
GTTCATTAAATATCTTTTCTAACCCTTAGTCTGTATATCCCGGAGTCACCTAGTGCAG	8280 fluorescence intensity (a.u.)
GTTAGTTGTTGGGGAGGAGGGGTATCGGGCGGAGAGGTGGCGGAGTCACCTAGTGCAG	15100 fluorescence intensity (a.u.)
GCACAGCGCCCGCGGTCCCAGTTCAGCGCCCAGAACACCACGGAGTCACCTAGTGCAG	8060 fluorescence intensity (a.u.)
TCCCCTCTTCCCCTCGCTTCTTCGTCGGTCGACCTGCGCACGGAGTCACCTAGTGCAG	8210 fluorescence intensity (a.u.)
